# Reference: PubChem BioAssay AID2685 (National Center for Advancing Translational Sciences (NCATS), 2010)
# Out of some 320,000 compounds screened, about 2,100 (0.66%) were called active. The shares of active, inactive and inconclusive entries below differ from those in the screen. Calls come from the whole dose curve; as a rule, active = well fitted inhibition curve with a large enough effect in the signal ratio, with a control signal flat (not every such curve was filed as active); inconclusive = small, poorly fitted or top-dose-only effect, or effect the other way, or a change in a side signal; inactive = flat fitted curve, though single readings scatter; the % refers to the signal ratio. A potency beside an inconclusive call is a rough fit, not a confirmed value.
# Test: qHTS Assay for Lipid Storage Modulators in Drosophila S3 Cells
# Conditions: BODIPY lipid droplet fluorescence, 18-24 h, cells fed with added oleic acid; lipid storage change, negative = inhibition: at 46.1 µM (top of the series) unless noted
# Procedure, shortened: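 Drosophila S3 cells loaded with oleic acid (400 uM, as added) and compounds at several concentrations; lipid droplets imaged by 488-nm laser-scanning cytometry, 500–530 nm intensity and object ratio to cell channel. Percent activity normalized to 20 uM Triacsin C.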
# % is set by controls: 0 for no effect and ±100 for the full control effect; potency is the fitted concentration of half-maximal effect.
SMILES,"lipid storage change, negative = inhibition",outcome,Potency
Cc1nnc(C)n1/N=C/c1ccc(C(C)C)cc1,inconclusive: 32.7%,,
CCS(=O)(=O)c1ccc(O)c(NC(=O)COc2ccc(Cl)cc2)c1,inconclusive: -15.4%,,
CC(C)(C)c1ccc(/C=C/C(=O)O)s1,inactive: -12.3%,,
CCc1ccc(NC(=O)N2CCc3ccccc3C2)cc1,inconclusive: 13.4%,,
CC(=O)c1cccc(NC(=O)N2CCCCCC2)c1,,inactive [at 46.1 µM],
O=[N+]([O-])c1cc(C(F)(F)F)ccc1NCCNC(=S)Nc1ccc(Cl)cc1,inconclusive: 52.8%,,
COc1ccc([N+](=O)[O-])c(OC)c1C(=O)NC(=O)Nc1c(F)cc(F)cc1F,inconclusive: -6.85%,,
C[n+]1c(/C=C/c2ccc(O)cc2)ccc2ccccc21,,,"inconclusive: 29.1 µM [falling, single point]"
O=C(NCCCCc1ccccc1)Nc1ccc(F)cc1F,inconclusive: -4.43%,,
COc1ccc(CCC(=O)NNC(=O)c2cc(Cl)ccc2OC)cc1OC,inconclusive: 9.59%,,
c1ccc(OCCCc2nc(-c3ccncc3)no2)cc1,inconclusive: 38.4%,,
CCn1c(=O)c(CCC(=O)NCC2CCCO2)c(C)c2c(C)nn(-c3ccc(C)cc3)c21 (configuration not stated),,,"inconclusive: 0.0259 µM [falling, full curve, poor fit]"
O=Cc1cn(CC(O)CN2CCCCC2)c2ccccc12 (configuration not stated),inconclusive: 25.5%,,
CCC(C)Nc1nc(-c2ccccn2)nc2ccccc12 (configuration not stated),inconclusive: -17.3%,,
CC1CN(c2nc(-c3ccccc3)nc3ccccc23)CC(C)O1 (configuration not stated),inconclusive: 31.2%,,
O=C(Cn1ncc(N2CCCC2)c(Cl)c1=O)c1ccc(Cl)cc1,inconclusive: 8.74%,,
CCN(CC)S(=O)(=O)c1ccc(OC)c(NC(=O)COc2ccc3c(C)cc(=O)oc3c2)c1,inconclusive: 7.28%,,
C=CCn1c(SCCCc2ccccc2)nc2c1c(=O)[nH]c(=O)n2C,,,"inconclusive: 13 µM [activator, partial curve, poor fit]"
Nc1ccccc1-c1nnc(-c2ccccc2N)n1N,inconclusive: -15.5%,,
COc1ccc(OCC(=O)Nc2ccccc2N2CCN(C)CC2)cc1,inconclusive: 166%,,
CCN(C(=O)CCN1C(=O)/C(=C/c2ccccc2)SC1=S)C1CCS(=O)(=O)C1 (configuration not stated),,,active: 18.4 µM
CC(/C=N/NC(=O)c1nnn(-c2nonc2N)c1C)=C\c1ccccc1,inconclusive: -31.7%,,
COC(=O)c1ccc(Sc2ccccc2NS(=O)(=O)c2ccc(OC)cc2)nc1,inconclusive: 47%,,
Cc1cccc(C(=O)N2CCN(S(=O)(=O)N3CCCCCC3)CC2)c1,,,"inconclusive: 5.8 µM [activator, full curve]"
COc1ccc(C2NCCc3c2[nH]c2ccccc32)cc1CN1CCc2cc(OC)c(OC)cc2C1C (configuration not stated),,,"inconclusive: 14.6 µM [activator, single point]"
COc1ccccc1C(=O)NCCC(=O)Nc1ccc(C)cn1,inconclusive: -27.9%,,

SMILES,"lipid storage change, negative = inhibition",outcome,Potency
CCc1onc(C)c1C(=O)Nc1ccc2c(c1)OCO2,inconclusive: -0.658%,,
O=C(NCc1ccccn1)c1cc(-c2ccc(Cl)cc2)nc2ccccc12,inconclusive: 0.576%,,
Cc1sc2nc(CSCC(=O)N(CCC#N)c3ccccc3F)[nH]c(=O)c2c1C,inconclusive,,
CNC(=O)CSc1nc2[nH]ncc2c(=O)[nH]1,,,"inconclusive: 0.651 µM [falling, full curve]"
Cc1nnc(OC(C)C)c2nn(-c3ccccc3F)c(C)c12,inconclusive: 107%,,
CCCCCCSc1ccc([C@H]2N[C@@](Cc3ccccc3)(C(=O)OC)[C@H]3C(=O)N(C)C(=O)[C@@H]23)cc1OC,inconclusive: 19.5%,,
O=C1CCC/C(=N\NC(=O)c2ccc(COc3ccccc3-c3ccccc3)cc2)C1,inconclusive: 6.5%,,
Cn1nc(-c2ccccc2)c(C(=O)Nc2ccc(C(F)(F)F)cc2)c1Cl,inconclusive: 18.5%,,
CC(C)(C)c1nc(SCC(=O)NNC(=O)c2ccccc2)c2ccccc2n1,,,"inconclusive: 1.46 µM [falling, partial curve]"
Cc1ccc(N(C)S(=O)(=O)c2cccc(C(=O)Nc3ccc(C)cn3)c2)cc1,inconclusive: -19.6%,,
CCC(=O)Oc1c(S(=O)(=O)c2ccc(C)cc2)c(C)nn1C(C)(C)C,inconclusive: 32.5%,,
Cn1nnc(NCc2cc(Br)ccc2OCc2cccs2)n1,inconclusive: 92.7%,,
CN1CCN(c2nc(-c3ccccc3)nc(-c3ccccc3)c2C#N)CC1,inconclusive: 11.3%,,
O=C(CN1CCN(S(=O)(=O)c2ccc(F)cc2)CC1)Nc1cc(C(F)(F)F)ccc1Cl,inconclusive: 26.3%,,
CN(C)S(=O)(=O)c1cc(NC(=O)CN2CCNC(=O)C2)ccc1Cl,inconclusive: 36.5% [activator],,
Cc1c(C(=O)N2CCCCC2)c(S(=O)(=O)Nc2ccc(F)cc2F)c(C)n1C,inconclusive: 32.3%,,
Cc1cc(C(=O)CSc2nc(N)cc(=O)[nH]2)c(C)n1CCc1ccc(F)cc1,,,"inconclusive: 32.6 µM [falling, single point]"
CCOc1ccc(NC(=O)C2CCN(S(=O)(=O)c3ccc4c(c3)NC(=O)C(C)S4)CC2)cc1 (configuration not stated),,,active: 1.03 µM
O=c1cn[nH]c2ccccc12,inconclusive: -16.4%,,
CC(C)(C)NC(=O)CSc1nc2scc(-c3ccccc3)c2c(=O)[nH]1,inconclusive: 35.1%,,
Cc1ccccc1OCC(O)CN(Cc1ccccc1O)C1CCCCC1 (configuration not stated),inconclusive: 34.8%,,
OC(CN1CCN(c2ccccc2)CC1)Cn1c2ccccc2c2ccccc21 (configuration not stated),,,"inconclusive: 1.03 µM [falling, full curve, poor fit]"
CSC1=NCCN1C(=O)Cc1ccc(Cl)cc1,inconclusive: 0.799%,,
CC(=O)C1=C(C)Nc2ncnn2C1c1ccccc1 (configuration not stated),inconclusive: -19.2%,,
Cc1cc(OCC(=O)Nc2ccncc2)ccc1Br,,,"inconclusive: 32.6 µM [falling, single point]"
COc1cc(C(=O)N2CCN(C(=O)c3cccc4ccccc34)CC2)cc(OC)c1OC,,,"inconclusive: 6.51 µM [activator, single point]"

# Fetched by structure from above (4):
SMILES,"lipid storage change, negative = inhibition",outcome,Potency
OC(CN1CCN(c2ccccc2)CC1)Cn1c2ccccc2c2ccccc21 (configuration not stated),,,"inconclusive: 1.03 µM [falling, full curve, poor fit]"
Cc1c(C(=O)N2CCCCC2)c(S(=O)(=O)Nc2ccc(F)cc2F)c(C)n1C,inconclusive: 32.3%,,
CN1CCN(c2nc(-c3ccccc3)nc(-c3ccccc3)c2C#N)CC1,inconclusive: 11.3%,,
Cc1sc2nc(CSCC(=O)N(CCC#N)c3ccccc3F)[nH]c(=O)c2c1C,inconclusive,,
